The record followed here is paper PMC6834594, “Structure and regulation of ZCCHC4 in m^6A-methylation of 28S rRNA” (Nature Communications, 2019).

For some of these results: Weaker means in comparison with the reference protein, sequence or condition of that experiment. Where a protein sequence is shown, tags need not be part of it. For some of these results: For at least one entry, the source does not settle the construct or the ends of the probe. For some of these results: At least one verdict was read from the data and is not stated in words by the source.

Holding throughout (assay): EMSA
One series concerns the target T1, ZCCHC4 dGRF-C2H2 (human) (UniProt Q9H5U6).
T1 sequence (looked up): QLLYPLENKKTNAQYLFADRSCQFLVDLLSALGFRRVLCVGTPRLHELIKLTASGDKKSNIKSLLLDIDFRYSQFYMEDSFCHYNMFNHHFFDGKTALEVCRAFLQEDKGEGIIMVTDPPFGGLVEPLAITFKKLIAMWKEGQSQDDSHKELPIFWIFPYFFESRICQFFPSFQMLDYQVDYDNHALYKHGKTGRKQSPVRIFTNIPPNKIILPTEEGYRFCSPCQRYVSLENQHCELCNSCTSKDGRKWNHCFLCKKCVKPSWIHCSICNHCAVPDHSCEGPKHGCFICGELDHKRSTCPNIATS
The conditions noted are these: EMSA: 20 mM Tris-HCl pH 7.5, 100 mM NaCl, 5% glycerol, 1 mM DTT, 4 C, 1 h; 0.3 uM RNA with 0-1.2 uM protein unless noted; 6% TBE native gel; recombinant …; residues 159-464; protein details: His6-SUMO removed by ULP1; label: none (SYBR Gold stain).

For the next series, the target named is T2, ZCCHC4 dCCHC (human) (UniProt Q9H5U6).
T2 sequence (looked up): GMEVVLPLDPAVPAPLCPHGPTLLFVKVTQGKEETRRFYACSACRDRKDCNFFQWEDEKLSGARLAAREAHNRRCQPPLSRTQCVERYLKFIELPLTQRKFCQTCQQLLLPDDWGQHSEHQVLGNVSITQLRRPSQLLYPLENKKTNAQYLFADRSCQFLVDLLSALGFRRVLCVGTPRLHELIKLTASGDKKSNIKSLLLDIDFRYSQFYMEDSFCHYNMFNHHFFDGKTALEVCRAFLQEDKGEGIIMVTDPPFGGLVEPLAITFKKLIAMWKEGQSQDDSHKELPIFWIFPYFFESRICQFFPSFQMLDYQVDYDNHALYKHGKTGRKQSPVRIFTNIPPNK
The conditions noted are these: EMSA: 20 mM Tris-HCl pH 7.5, 100 mM NaCl, 5% glycerol, 1 mM DTT, 4 C, 1 h; 0.3 uM RNA with 0-1.2 uM protein unless noted; 6% TBE native gel; recombinant …; residues 24-368; protein details: His6-SUMO removed by ULP1; label: none (SYBR Gold stain). For orientation: Mobility shift assays separate free from complexed probe on a gel.

The target of the next series is T3, ZCCHC4 24-513 WT (human) (UniProt Q9H5U6).
T3 sequence (looked up): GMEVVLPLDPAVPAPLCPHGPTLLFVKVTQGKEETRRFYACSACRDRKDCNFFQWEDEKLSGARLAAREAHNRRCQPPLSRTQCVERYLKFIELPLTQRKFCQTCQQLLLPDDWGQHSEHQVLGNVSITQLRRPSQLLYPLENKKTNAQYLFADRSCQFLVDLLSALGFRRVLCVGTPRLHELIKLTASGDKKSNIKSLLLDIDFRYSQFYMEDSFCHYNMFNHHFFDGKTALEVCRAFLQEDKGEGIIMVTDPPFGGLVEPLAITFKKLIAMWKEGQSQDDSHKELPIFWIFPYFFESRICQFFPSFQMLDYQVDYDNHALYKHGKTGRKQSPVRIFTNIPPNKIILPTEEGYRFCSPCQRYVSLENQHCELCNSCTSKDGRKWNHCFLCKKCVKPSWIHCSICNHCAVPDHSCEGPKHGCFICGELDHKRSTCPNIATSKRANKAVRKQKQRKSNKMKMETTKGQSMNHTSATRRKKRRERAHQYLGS
As to conditions: EMSA: 20 mM Tris-HCl pH 7.5, 100 mM NaCl, 5% glycerol, 1 mM DTT, 4 C, 1 h; 0.3 uM RNA with 0-1.2 uM protein unless noted; 6% TBE native gel; recombinant …; residues 24-513; protein details: His6-SUMO removed by ULP1; label: none (SYBR Gold stain).

For another series, the target named is T4, ZCCHC4 dGRF (human) (UniProt Q9H5U6).
T4 sequence (looked up): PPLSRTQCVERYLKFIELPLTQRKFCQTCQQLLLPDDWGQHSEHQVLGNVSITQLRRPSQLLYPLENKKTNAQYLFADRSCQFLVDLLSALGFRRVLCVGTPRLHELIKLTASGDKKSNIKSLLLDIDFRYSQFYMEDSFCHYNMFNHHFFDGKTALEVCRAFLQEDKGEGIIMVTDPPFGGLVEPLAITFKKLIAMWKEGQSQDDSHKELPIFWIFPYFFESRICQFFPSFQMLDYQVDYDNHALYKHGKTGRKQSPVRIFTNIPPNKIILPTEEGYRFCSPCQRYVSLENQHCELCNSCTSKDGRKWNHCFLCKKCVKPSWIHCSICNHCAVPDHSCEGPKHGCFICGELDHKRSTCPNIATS
The conditions noted are these: EMSA: 20 mM Tris-HCl pH 7.5, 100 mM NaCl, 5% glycerol, 1 mM DTT, 4 C, 1 h; 0.3 uM RNA with 0-1.2 uM protein unless noted; 6% TBE native gel; recombinant …; residues 100-464; protein details: His6-SUMO removed by ULP1; label: none (SYBR Gold stain).

Regarding “CGGUACACCUGUCAAACGGUAACGCAGGUG [30-mer 28S rRNA]”, the binding result with ZCCHC4 dGRF-C2H2 (human) is reported as “binds more weakly”; in the series with ZCCHC4 dCCHC (human), “binds more weakly”; in the series with ZCCHC4 24-513 WT (human), “binds”; with ZCCHC4 dGRF (human), “binds more weakly”.
